Measurements as given in article PMC11413854, “Reversible Control of Native GluN2B-Containing NMDA Receptors with Visible Light” (ACS Chemical Neuroscience, 2024).

Tested on: native NMDA currents of cultured cortical neurons
Experiment: Whole-cell patch-clamp of NMDA currents in cultured cortical neurons (DIV 6-8), spectral dependence of bound OptoNAM-3
Format: cell-based, mouse
Details: for % of trans in binding site: Fig. 5J; for % of cis in binding site: Figure 5E
Description: We then turned to native NMDA currents. We repeated these experiments on cultured cortical neurons at days in vitro [DIV] 6–8, a stage at which GluN2B-containing NMDARs form the major population of neuronal NMDARs.[48] On cortical neurons, 2 μM OptoNAM-3 induced 70% inhibition of NMDA-induced currents in the dark. The lower inhibitory effect of trans-OptoNAM-3 on neurons compared to HEK cells is most likely due to the mixture of NMDAR subtypes expressed in neurons.[48] […] This effect is furthermore partially reversible thanks to the use of 550 nm light.
Mice were housed in the IBENS rodent central facility duly accredited by the French Ministry of Agriculture. All experiments were performed in compliance with French and European regulations on care and protection of laboratory animals (EU Directive 2010/63, French Law 2013–118, February 6, 2013), and were approved by local ethics committees and by the French Ministry of Research and Innovation (authorization numbers #05137.02, APAFIS #28867-2020121814485893). Dissociated cultures of cortical neurons were prepared from mouse embryos at E18 as described previously.[84] After removing meninges, cortices were placed in ice-cold HBSS solution. Cell dissociation was performed individually for cortices of each embryo. Cortices were incubated in 2.5% trypsin at 37 °C for 7 min, rinsed three times with 37 °C phosphate buffer saline, and finally suspended in plating medium (Neurobasal Medium, supplemented with 0.5 mM L-glutamine, 1% B27 supplement, and penicillin/streptomycin). The neurons were further dissociated by trituration, and cells were plated on poly-D-lysine coated coverslips in 24-well culture dishes at a density of 3 × 10^5 cells per well for the excitotoxicity test and that of 1 × 10^5 cells per well for patch clamp experiments. Cultures were incubated at 37 °C in a humidified atmosphere of 5% CO2. Cells were fed by changing 1/2 medium to fresh Neurobasal medium every 4 days. For the excitotoxicity experiments, after 5 days in vitro, growth of non-neuronal cells was halted by a 24 h exposure to FDX ([…] 5-fluoro-2′-deoxyuridine). The cultures were used for experiments after 6 to 14 days in vitro (DIV6–8 for patch clamp experiments and DIV14 for excitotoxicity tests).
Whole-cell patch-clamp recordings on neurons were performed 6 to 8 days after the culturing step (DIV 6–8) using the same recording conditions as for HEK cells. Recordings were performed at a holding potential of −60 mV and at room temperature. Currents were elicited by NMDA (300 μM) and D-serine (50 μM) to specifically activate NMDARs.
OptoNAM-3 was perfused in the dark onto the patched neuron (Figure 5A–C). […] Stopping perfusion ensures that trans-OptoNAM coming from the perfusion tube […] with the wavelength PSS during the illumination procedure.
OptoNAM-3 was perfused in the dark onto the patched neuron (Figures 4G,H and 5F,H). […] Then, wavelengths from 435 to 580 nm were applied and the inhibition recovery was monitored.
For the trans to cis and cis to trans isomerization study in the binding site (Figure 5C,H respectively), we decided to normalize (scale) the inhibition values of OptoNAM-3 at different wavelengths by the inhibition induced by OptoNAM-3 at 365 nm and in the dark since these two conditions represent respectively the minimum and maximum of the inhibition. We followed this equation: [drawing 2] where m ∈ [r365,rdark] is the measurement (inhibition) to be scaled, r365 and rdark correspond to the minimum (365 nm state inhibition) and maximum (dark state inhibition) of the measurement, respectively, and t365 and tdark represent the minimum and maximum of the range (OptoNAM-3 365 nm PSS and dark PSS mean inhibition). To reduce the decreasing effect of normalization onto SEM, the SEMs represented in the figures were calculated with the data injected in the first part of the equation ( [drawing 3] ). […]

`c1ccc(/N=N/c2ccc(CCNc3ccncc3)cc2)cc1` [OptoNAM-3, (E)-N-(4-(Phenyldiazenyl)phenethyl)pyridin-4-amine] was tested, and the “% of trans in binding site” value (365 nm) was 10.32%, the “% of trans in binding site” value (435 nm) was 10.43% and the “% of trans in binding site” value (460 nm) was 11.07%. For the same compound, the “% of trans in binding site” value (490 nm) was 23.70%, the “% of trans in binding site” value (525 nm) was 23.06% and the “% of trans in binding site” value (550 nm) was 39.11%. The “% of trans in binding site” value (580 nm) was 27.15%, the “% of cis in binding site” value (365 nm) was 89.957% and the “% of cis in binding site” value (435 nm) was 75.836%. The “% of cis in binding site” value (460 nm) was 68.140%, the “% of cis in binding site” value (490 nm) was 38.614% and the “% of cis in binding site” value (525 nm) was 12.701%. The “% of cis in binding site” value (550 nm) was 1.233% and the “% of cis in binding site” value (580 nm) was 0.801%.
